Some of the results follow. The main result of the screen is listed elsewhere. These columns were measured beside it and carry no call. The list favours compounds with an active or inconclusive main result. Words in brackets tell the shape of the fitted curve; partial curves, single points and poor fits give uncertain potencies.
Test: qHTS Assay for Lipid Storage Modulators in Drosophila S3 Cells;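 for cell number change: cells counted by Cell Tracker Red CMTPX staining in the red channel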
Details: BODIPY lipid droplet fluorescence, 18-24 h; for cell number change: measured here: cell count max response, cells fed with added oleic acid
Procedure, shortened: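 Drosophila S3 cells loaded with oleic acid (400 uM, as added) and compounds at several concentrations; lipid droplets imaged by 488-nm laser-scanning cytometry, 500–530 nm intensity and object ratio to cell channel. Percent activity normalized to 20 uM Triacsin C.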

[1] = measured here: cell number channel AC50, cells fed with added oleic acid
[2] = measured here: lipid fluorescence (Fed channel) AC50, cells fed with added oleic acid

Structure (SMILES)	cell number change	AC50 [1]	AC50 [2]
CC[C@@H](C)[C@H](NC(=O)OC(C)(C)C)c1nnc(S(=O)(=O)Cc2cc(C)ccc2C)o1	-82.2%	29.1 µM [falling, single point]	25.9 µM [falling, partial curve]
CCC(=O)NCCc1nc2ccccc2n1Cc1ccc(C)cc1	16.3%		6.51 µM [rising, single point]
Nc1c(-c2cccc(Cl)c2)cnn1-c1ccccc1	2.01%		0.0058 µM [falling, full curve, poor fit]
COC(=O)CSc1nnc(C)n1-c1cccc(OC)c1	-25.4%		0.103 µM [falling, full curve, poor fit]
CC(C)N(Cc1nc(-c2ccc3c(c2)OCO3)no1)Cc1nccn1C	11.4%		0.0259 µM [rising, full curve, poor fit]
O=C(NCCOC(=O)c1ccccc1C(=O)OCCNC(=O)c1cccnc1)c1cccnc1	37.1%	7.31 µM [rising, partial curve, poor fit]	
CCC(=O)N1CCc2cc(S(=O)(=O)CCC(=O)NCc3ccc(C)cc3)ccc21	22.7%		
Cc1ccc(NC(=O)CN2C(=O)COc3ccc(S(=O)(=O)N4CCCC4)cc32)cc1C	0.943%		6.51 µM [rising, single point]
NC(=O)c1cccc(CC(=O)c2ccccc2)c1	-35.1%	1.16 µM [falling, full curve, poor fit]	9.2 µM [falling, partial curve]
CCc1nc2oc3ccccc3c(=O)c2c(=O)n1-c1ccccc1	5.83%		0.731 µM [rising, single point]
COc1cc(C2C=C(c3cccs3)Nc3ncnn32)cc(OC)c1OC (stereo not drawn)	-65%	29.1 µM [falling, single point]	
CC(C)=C(NC(=O)c1ccccc1Br)C(=O)NCCc1nc2ccccc2[nH]1	33.2%	18.4 µM [rising, single point]	
COC(=O)[C@@]1(Cc2ccc(F)cc2)[C@H]2c3cc(C(=O)N(C)C)n(Cc4ccccc4)c3C[C@H]2CN1C(=O)c1ccccc1	-47.9%	2.59 µM [falling, full curve]	8.2 µM [falling, partial curve]
COc1ccc(C(=O)OC(C)C(=O)NC(C)CCc2ccccc2)cc1OC (stereo not drawn)	-8.03%		
CCN(CC(=O)NCc1cccs1)C(=O)c1ccc(S(=O)(=O)Nc2ccccc2Cl)cc1	1.5%	0.651 µM [falling, single point]	0.461 µM [falling, single point]
COc1ccc(S(=O)(=O)N(C)CC(=O)N2CCCC2)cc1OC	-13.5%		
O=C(c1ccccc1)N1CCN(c2ccc([N+](=O)[O-])cc2-n2cccc2)CC1	56.2%	2.06 µM [rising, partial curve]	16.4 µM [rising, single point]
COc1ccc2c(c1)[C@H]1[C@H](CO2)[C@H](c2ccccc2)[C@]2(C)C(=O)Nc3cc(Cl)ccc3C(=O)N12	19.2%		20.6 µM [rising, partial curve]
CCCCn1nc(C(=O)OCC(=O)Nc2sccc2C(N)=O)c2ccccc2c1=O	-12.9%		18.4 µM [rising, single point]
O=C(NCc1ccccc1CN1CCCC1)C1CCN(S(=O)(=O)c2ccc(Cl)cc2)CC1	-30.3%	16.4 µM [falling, partial curve, poor fit]	

Structure (SMILES)	cell number change	AC50 [1]	AC50 [2]
Cc1ccc2nc3sc(C(=O)NCc4ccco4)c(N)c3cc2c1	-65.8%	14.6 µM [falling, partial curve]	16.4 µM [falling, partial curve]
Cc1cc(-c2ccc(S(=O)(=O)N3CCN(c4cccc(C)c4C)CC3)s2)on1	5.81%		
O=C1CCN2C=Nc3cccc4ccc1c2c34	10.4%		
Nc1ccccc1NC1=CC(=O)CC(c2ccco2)C1 (stereo not drawn)	0.802%		6.51 µM [rising, partial curve]
Cc1cnc(NC(=O)c2ccc3ncsc3c2)s1	2%		
CC(CNC(=O)c1ccc(Br)o1)NC(=O)c1ccc(Br)o1 (stereo not drawn)	36.3%	29.1 µM [rising, single point]	5.8 µM [rising, full curve, poor fit]
CC1(C)CCC(=O)C=C1Nc1ccc(F)c(Cl)c1	-16.1%		0.092 µM [rising, full curve, poor fit]
Cc1ccc(CSCC(=O)Nc2ccc(N3CCOCC3)cc2N2CCOCC2)cc1	-17.9%		
COc1ccc(CCNC(=O)CCN2C(=O)C(C)Oc3ccc(C)cc32)cc1OC (stereo not drawn)	-6.54%	6.51 µM [rising, partial curve, poor fit]	0.103 µM [rising, full curve, poor fit]
CC(C)CNS(=O)(=O)c1ccc(CCC(=O)NCCc2ccccc2)cc1	-23%		0.651 µM [falling, partial curve]
COC(=O)C1=CN(c2cc(C)cc(C)c2)C=C(C(=O)OC)C1c1cccc(F)c1	33.3%	7.94 µM [rising, partial curve]	11.2 µM [rising, partial curve, poor fit]
O=C(NC1CC1)c1ccc(-n2cccc2)cc1	18.9%		
Cc1cccc(NC(=O)c2nc[nH]c2C(=O)NCCCCCCNC(=O)c2[nH]cnc2C(=O)Nc2cccc(C)c2)c1	19.3%		0.0731 µM [rising, partial curve, poor fit]
COc1ccc(N2CC(C(=O)OCC(=O)Nc3cc(C)on3)CC2=O)cc1 (stereo not drawn)	16.7%	6.51 µM [rising, single point]	20.6 µM [falling, single point]
Nc1nc(SCC(=O)NCCN2CCOCC2)nc2sc3c(c12)CCC3	-13.8%		
CCCc1cc(=O)oc2cc(C)cc(OCC(=O)NCCCN3CCCC3=O)c12	16.4%		
Cn1cnnc1SCC(=O)c1ccc2c(c1)NC(=O)CO2	-10.8%		10.3 µM [falling, single point]
O=C(c1cc2ccccc2cc1O)N1CCN(c2ccccc2O)CC1			0.231 µM [falling, full curve, poor fit]
c1ccc(-c2cncn2-c2ccccc2)cc1	-34.6%	10.3 µM [falling, single point]	29.1 µM [falling, single point]
O=C(CN1CCN(Cc2ccc(F)cc2Cl)C1=O)NCCc1ccccc1	-12.3%		3.66 µM [rising, single point]

Complete entries from above:
Nc1ccccc1NC1=CC(=O)CC(c2ccco2)C1 (stereo not drawn) as listed: cell number change: 0.802%; AC50 [2]: 6.51 µM [rising, partial curve]
Cn1cnnc1SCC(=O)c1ccc2c(c1)NC(=O)CO2 as listed: cell number change: -10.8%; AC50 [2]: 10.3 µM [falling, single point]
Cc1cccc(NC(=O)c2nc[nH]c2C(=O)NCCCCCCNC(=O)c2[nH]cnc2C(=O)Nc2cccc(C)c2)c1 as listed: cell number change: 19.3%; AC50 [2]: 0.0731 µM [rising, partial curve, poor fit]
CC1(C)CCC(=O)C=C1Nc1ccc(F)c(Cl)c1 as listed: cell number change: -16.1%; AC50 [2]: 0.092 µM [rising, full curve, poor fit]

(next part)

Structure (SMILES)	cell number change	AC50 [1]	AC50 [2]
CCOC(=O)c1nn(-c2ccc(C)cc2)c(=O)c2c(N)scc12	-41%	18.4 µM [falling, single point]	
CCc1cccc(NC(=O)C2CCCN(S(=O)(=O)c3cccs3)C2)c1 (stereo not drawn)	-8.56%		4.11 µM [falling, full curve]
CCOC(=O)c1ccc(NS(=O)C23CC4CC(CC(C4)C2)C3)cc1 (stereo not drawn)		1.03 µM [rising, partial curve]	
CN(C)CCNC(=O)Nc1ccc(F)cc1F	0.828%		
O=C(Cn1cccc1)NC1CCCCCC1	-5.17%		29.1 µM [rising, single point]
CC(C)NCC(O)COCc1ccc(Cl)cc1 (stereo not drawn)	-7.2%		1.64 µM [falling, full curve, poor fit]
Cc1cc(NC(=O)COC(=O)c2ccc([N+](=O)[O-])cc2Cl)no1	31.8%	6.51 µM [rising, full curve, poor fit]	6.51 µM [rising, full curve, poor fit]
CN(Cc1ccc(N(C)C)cc1)C(=O)c1cc2ccccc2o1	-10.9%		29.1 µM [falling, single point]
CC1(C)CN(c2cccc(C#N)c2)C1=O	-51.3%		
CC(C)C(NC(=O)CN1C(=O)c2ccccc2C1=O)c1ccccc1 (stereo not drawn)	7.8%		1.16 µM [rising, full curve, poor fit]
COC(=O)CN1C(=O)C(C)=C(c2ccc(C)cc2)S1(=O)=O	-21.3%		29.1 µM [rising, single point]
CN(C)C(=O)CN1C(=O)C2CCCCN2C(=O)c2ccccc21 (stereo not drawn)	-30.7%	29.1 µM [falling, single point]	29.1 µM [falling, single point]
CC(=O)Nc1nc2c(s1)CCc1ccccc1-2	-29.8%		32.6 µM [falling, single point]
COC(=O)c1cc(NCc2c(F)cccc2Cl)ccc1N1CCOCC1	-5.79%		4.11 µM [falling, single point]
O=C(NC1CCS(=O)(=O)C1)c1cccc(S(=O)(=O)N2CCCCC2)c1 (stereo not drawn)	6.09%		0.00461 µM [falling, full curve, poor fit]
O=C(O)CN1C(=O)CC(Cc2ccccc2)C1=O (stereo not drawn)	-9.76%		25.9 µM [falling, single point]
Cc1cccc(-n2ccnc2SCC(=O)Nc2ccc3c(c2)OCCO3)c1			6.51 µM [rising, single point]
O=C(C=C1CCN(c2ncc(C(F)(F)F)cc2Cl)CC1)NNC(=O)Nc1ccc(Cl)cc1	-29.3%	0.82 µM [falling, full curve, poor fit]	0.326 µM [falling, full curve]
COc1ccc(OC)c(-c2cn(S(=O)(=O)c3ccccc3)nc2N)c1	22.7%	0.0731 µM [rising, full curve]	0.146 µM [rising, full curve]
